Measured values: patent publication US20210188980A1
These are yes or no findings as the source states them, for the method shown. Some entries that bind do so weakly or less than the wild type.

What was measured:
[1] = target: human LAG-3 expressed on cells (human) (UniProt P18627); experiment: flow cytometry, biotinylated antibody + FITC-streptavidin, CD3 T cells; panel 'PBMC stimulation for 72h, PD1 antibody treated group' (cells pre-treated with unlabelled HumAb713-7)
[2] = target: human LAG-3 expressed on cells (human) (UniProt P18627); experiment: flow cytometry, biotinylated antibody + FITC-streptavidin, CD3 T cells; panel 'PBMC stimulation for 72h, untreated group' (anti-CD3 plus anti-CD28)
[3] = target: human LAG-3 expressed on cells (human) (UniProt P18627); experiment: flow cytometry, biotinylated antibody + FITC-streptavidin, CD3 T cells; panel 'PBMC stimulation for 72h, Lag3 antibody treated group' (cells pre-treated with unlabelled HumAb747V-67)
[4] = target: T1, biotinylated LAG-3 (AcroBiosystem, Cat No. H82E5) (human) (UniProt P18627); experiment: competition ELISA (RBA assay): FGL1 coated on the plate, 1 ug/ml biotinylated LAG-3 added with the antibody; blocked ligand FGL1
T1 sequence (biotinylated, looked up): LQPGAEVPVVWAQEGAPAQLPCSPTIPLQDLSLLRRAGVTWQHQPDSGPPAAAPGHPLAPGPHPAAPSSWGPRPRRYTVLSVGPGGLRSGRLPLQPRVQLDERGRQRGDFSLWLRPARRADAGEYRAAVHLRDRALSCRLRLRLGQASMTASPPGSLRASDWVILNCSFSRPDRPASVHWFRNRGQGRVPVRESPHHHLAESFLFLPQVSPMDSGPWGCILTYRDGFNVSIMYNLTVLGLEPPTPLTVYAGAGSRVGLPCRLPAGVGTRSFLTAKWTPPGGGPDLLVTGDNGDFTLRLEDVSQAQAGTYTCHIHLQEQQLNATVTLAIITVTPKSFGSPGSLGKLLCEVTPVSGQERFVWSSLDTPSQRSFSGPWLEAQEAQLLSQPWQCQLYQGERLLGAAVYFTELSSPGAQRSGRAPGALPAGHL

Measured: binding

B1: HumAb747V-67 (antibody, human IgG1, V domains shown)
VH: EVQLVQSGAEVKKPGATVKLSCTASGFNIKDDYMHWVKQRPEQGLDWIGWIVPENGNTVYASKFQGKATITADTSTNTAYLELSSLRSEDTAVYYCTVYGDYWGQGTTVTVSS
VL: DIQMTQSPSSLSASVGDRVTITCRASQEISGYLSWLQQKPGGAIKRLIYAASALDSGVPSRFSGSRSGSDYTLTISSLQPEDFADYYCLQYASYPLTFGQGTKLELK
binds: all assays above
